This is one part of the list. Repeats are few or missing, and single values can be far off.
Target: T1, NSUN6 (UniProt Q8TEA1)
T1 sequence: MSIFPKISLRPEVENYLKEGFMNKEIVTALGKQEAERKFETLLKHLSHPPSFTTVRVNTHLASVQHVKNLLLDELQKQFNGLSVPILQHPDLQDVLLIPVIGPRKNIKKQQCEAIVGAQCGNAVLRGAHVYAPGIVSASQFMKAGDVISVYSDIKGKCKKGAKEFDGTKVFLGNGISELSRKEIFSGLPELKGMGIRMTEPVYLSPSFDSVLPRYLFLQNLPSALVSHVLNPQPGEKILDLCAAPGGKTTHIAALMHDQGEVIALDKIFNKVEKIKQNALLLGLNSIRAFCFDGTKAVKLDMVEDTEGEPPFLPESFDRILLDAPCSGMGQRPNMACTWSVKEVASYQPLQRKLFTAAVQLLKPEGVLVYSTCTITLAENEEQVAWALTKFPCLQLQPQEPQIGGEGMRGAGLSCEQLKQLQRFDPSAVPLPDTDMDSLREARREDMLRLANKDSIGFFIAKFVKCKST
Test: m5C methylation level at the target C (C/(C+U) bisulfite reads) (fraction); higher = more methylation by NSUN6; extreme values may be limits of the assay
Settings: HEK293T (wild-type)

[1] = parent substrate: substrate #1 (main figure)

Row | Sequence | m5C methylation level at the target C [1] | m5C methylation level at the target C (parent substrate: substrate #2) | m5C methylation level at the target C (parent substrate: substrate #3) | m5C methylation level at the target C (parent substrate: substrate #4)
1 | GCCUUA | 0.0033 | 0.00457 | 0.00122 | 0.00127
2 | CCUGGC | 0.00257 | 0.00167 | 0.000678 | 0.000898
3 | GCCUUC | 0.00495 | 0 | 0.00431 | 0.00893
4 | ACUAUC | 0.000938 | 0 | 0.00202 | 0
5 | UCCGUG | 0.00181 | 0 | 0.0028 | 0.0018
6 | ACUGAU | 0.00108 | 0.00161 | 0.0018 | 0
7 | CCAGGU | 0.00118 | 0.00177 | 0 | 0
8 | UCCGUU | 0.000662 | 0 | 0 | 0
9 | ACCUAA | 0.000916 | 0.000946 | 0 | 0
10 | ACUAAU | 0.000749 | 0 | 0.000929 | 0.000462
11 | UCACGU | 0.000602 | 0.00251 | 0.00114 | 0.0082
12 | GCCGUA | 0 | 0.00333 | 0.00225 | 0.00232
13 | CCGGUA | 0.00206 | 0 | 0.00614 | 0.00371
14 | CCGCGU | 0 | 0.00108 | 0.000981 | 0.000558
15 | ACCCCU | 0.00124 | 0 | 0.000649 | 0.00322
16 | ACGUGA | 0 | 0.0081 | 0.00685 | 0.00298
17 | CCUUUG | 0.0015 | 0.00242 | 0.000973 | 0.00336
18 | GCACCG | 0 | 0 | 0.00192 | 0.000459
19 | ACCGGU | 0 | 0.00527 | 0 | 0
20 | GCUUGG | 0.00498 | 0 | 0.000955 | 0.00136
21 | ACCUGC | 0.000684 | 0.00227 | 0.00193 | 0.0144

As entered above:
For m5C methylation level at the target C (parent substrate: substrate #3), GCCUUA has the entry 0.00122
For m5C methylation level at the target C (parent substrate: substrate #4), UCCGUU has the entry 0
